The text below walks through data of publication PMC3984077.

Results are given in words; binding and its absence hold for the method and conditions named.

This experiment has as its target T1, HasSCTD, the last 78 residues of the antisigma factor HasS of Serratia marcescens (Serratia marcescens) (UniProt Q79AD3).
T1 sequence: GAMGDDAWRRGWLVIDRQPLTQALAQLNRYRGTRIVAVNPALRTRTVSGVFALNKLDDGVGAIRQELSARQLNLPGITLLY
The experiment can be described thus: AUC; sedimentation velocity, 20°C, 42 000 rpm, HasSCTD at 86 µM and 14 µM in buffer with detergent, c(S) model; both purified.

For the substance “HasSCTD, the last 78 residues of the antisigma factor HasS of Serratia marcescens (from UniProt Q79AD3 240-317) (domain or fragment)”, the binding result is “no binding (tested: 86 µM and 14 µM)”.
